Data as given in PubChem BioAssay AID652243 (Drosophila RNAi Screening Center, 2013).
In all, the deposit lists about 24,000 reagents; shown is a random part of those that have a named target and a result. In the full data, 246 (1%) got an active call. 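Plates not normalised; calls are printed but the firefly/Renilla ratio behind them is not deposited; fold cut for lowering reported inconsistently.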 The raw values are shown without normalisation. Reagents against one gene are numbered here. No sequences are given here. Not given: the amount of reagent.

Aim: 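Fly regulators of androgen-dependent reporter output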 (primary screen)
Cell system: Drosophila S2R+ cells
Knock-down reagent: long dsRNA against Drosophila genes
Time to read-out: 72 h (48 h, then 24 h hormone)
Challenge: synthetic androgen R1881 at 10 nM for 24 h
Measurement: 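Per-well raw luminescence of the androgen-driven firefly reporter and of the Renilla control, two replicates each, without normalisation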
Direction: firefly reporter light: higher = more light from androgen-responsive reporter; Renilla control light: higher = more constitutive control signal (cell number, transfection)
Active means: 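Across duplicate plates, a knock-down whose log firefly/Renilla ratio shifted a set fold down or up from the GFP/LacZ control mean was a hit; the downward cut appears as both 1.5 and 3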
Meaning of the calls: active = hit: reporter lowered or raised; inactive = no hit

Nse4 #1
- firefly reporter light, replicate 1: 1.63e5
- firefly reporter light, replicate 2: 2.42e5
- Renilla control light, replicate 1: 2.29e6
- Renilla control light, replicate 2: 2.15e6
- Outcome: inactive

Nse4 #2
- firefly reporter light, replicate 1: 3.96e5
- firefly reporter light, replicate 2: 6.54e5
- Renilla control light, replicate 1: 8.99e5
- Renilla control light, replicate 2: 1.61e6
- Outcome: inactive

pan #1
- firefly reporter light, replicate 1: 51597
- firefly reporter light, replicate 2: 47759
- Renilla control light, replicate 1: 4.89e5
- Renilla control light, replicate 2: 4.18e5
- Outcome: inactive

pan #2
- firefly reporter light, replicate 1: 1.13e6
- firefly reporter light, replicate 2: 8.29e5
- Renilla control light, replicate 1: 1.99e6
- Renilla control light, replicate 2: 1.60e6
- Outcome: inactive

pan #3
- firefly reporter light, replicate 1: 7.85e5
- firefly reporter light, replicate 2: 7.59e5
- Renilla control light, replicate 1: 1.44e6
- Renilla control light, replicate 2: 1.38e6
- Outcome: inactive

lin #1
- firefly reporter light, replicate 1: 3.92e5
- firefly reporter light, replicate 2: 3.60e5
- Renilla control light, replicate 1: 2.42e6
- Renilla control light, replicate 2: 1.93e6
- Outcome: inactive

lin #2
- firefly reporter light, replicate 1: 2.79e5
- firefly reporter light, replicate 2: 2.80e5
- Renilla control light, replicate 1: 6.88e5
- Renilla control light, replicate 2: 7.75e5
- Outcome: inactive

Arf1
- firefly reporter light, replicate 1: 1.07e5
- firefly reporter light, replicate 2: 1.71e5
- Renilla control light, replicate 1: 1.04e6
- Renilla control light, replicate 2: 1.11e6
- Outcome: inactive

Klp67A #1
- firefly reporter light, replicate 1: 1.25e5
- firefly reporter light, replicate 2: 1.49e5
- Renilla control light, replicate 1: 1.28e6
- Renilla control light, replicate 2: 1.11e6
- Outcome: inactive

Klp67A #2
- firefly reporter light, replicate 1: 1.67e5
- firefly reporter light, replicate 2: 1.82e5
- Renilla control light, replicate 1: 3.53e5
- Renilla control light, replicate 2: 3.27e5
- Outcome: inactive

glu #1
- firefly reporter light, replicate 1: 6.35e5
- firefly reporter light, replicate 2: 7.86e5
- Renilla control light, replicate 1: 1.66e6
- Renilla control light, replicate 2: 1.51e6
- Outcome: inactive

glu #2
- firefly reporter light, replicate 1: 3.33e5
- firefly reporter light, replicate 2: 2.53e5
- Renilla control light, replicate 1: 8.77e5
- Renilla control light, replicate 2: 7.63e5
- Outcome: inactive

CG10005
- firefly reporter light, replicate 1: 1.54e5
- firefly reporter light, replicate 2: 1.64e5
- Renilla control light, replicate 1: 2.79e6
- Renilla control light, replicate 2: 2.48e6
- Outcome: inactive

CG8765 #1
- firefly reporter light, replicate 1: 8.10e5
- firefly reporter light, replicate 2: 8.47e5
- Renilla control light, replicate 1: 1.47e6
- Renilla control light, replicate 2: 1.51e6
- Outcome: inactive

CG8765 #2
- firefly reporter light, replicate 1: 7.41e5
- firefly reporter light, replicate 2: 6.00e5
- Renilla control light, replicate 1: 8.83e5
- Renilla control light, replicate 2: 6.58e5
- Outcome: inactive

Nepl18
- firefly reporter light, replicate 1: 2.45e5
- firefly reporter light, replicate 2: 1.81e5
- Renilla control light, replicate 1: 2.86e6
- Renilla control light, replicate 2: 3.16e6
- Outcome: inactive

CR16735
- firefly reporter light, replicate 1: 1.58e5
- firefly reporter light, replicate 2: 1.78e5
- Renilla control light, replicate 1: 2.57e6
- Renilla control light, replicate 2: 1.77e6
- Outcome: inactive

Sod1
- firefly reporter light, replicate 1: 2.93e5
- firefly reporter light, replicate 2: 2.70e5
- Renilla control light, replicate 1: 3.40e6
- Renilla control light, replicate 2: 2.73e6
- Outcome: inactive

RpL31 #1
- firefly reporter light, replicate 1: 2.17e5
- firefly reporter light, replicate 2: 1.50e5
- Renilla control light, replicate 1: 1.69e6
- Renilla control light, replicate 2: 1.39e6
- Outcome: inactive

RpL31 #2
- firefly reporter light, replicate 1: 3.01e5
- firefly reporter light, replicate 2: 3.11e5
- Renilla control light, replicate 1: 5.99e5
- Renilla control light, replicate 2: 5.99e5
- Outcome: inactive

mRpL38 #1
- firefly reporter light, replicate 1: 5.76e5
- firefly reporter light, replicate 2: 6.18e5
- Renilla control light, replicate 1: 4.40e6
- Renilla control light, replicate 2: 4.57e6
- Outcome: inactive

mRpL38 #2
- firefly reporter light, replicate 1: 4.84e5
- firefly reporter light, replicate 2: 5.65e5
- Renilla control light, replicate 1: 1.40e6
- Renilla control light, replicate 2: 1.45e6
- Outcome: inactive

Only “Renilla control light, replicate 1” (2 entries from above):
Arf1	1.04e6
Klp67A #1	1.28e6
